Experimental data taken from article PMC9834230, “The HAPSTR2 retrogene buffers stress signaling and resilience in mammals” (Nature Communications, 2023).

Chains of the proteins cited; added tags and fusions are not shown.
UniProt Q7Z6Z7: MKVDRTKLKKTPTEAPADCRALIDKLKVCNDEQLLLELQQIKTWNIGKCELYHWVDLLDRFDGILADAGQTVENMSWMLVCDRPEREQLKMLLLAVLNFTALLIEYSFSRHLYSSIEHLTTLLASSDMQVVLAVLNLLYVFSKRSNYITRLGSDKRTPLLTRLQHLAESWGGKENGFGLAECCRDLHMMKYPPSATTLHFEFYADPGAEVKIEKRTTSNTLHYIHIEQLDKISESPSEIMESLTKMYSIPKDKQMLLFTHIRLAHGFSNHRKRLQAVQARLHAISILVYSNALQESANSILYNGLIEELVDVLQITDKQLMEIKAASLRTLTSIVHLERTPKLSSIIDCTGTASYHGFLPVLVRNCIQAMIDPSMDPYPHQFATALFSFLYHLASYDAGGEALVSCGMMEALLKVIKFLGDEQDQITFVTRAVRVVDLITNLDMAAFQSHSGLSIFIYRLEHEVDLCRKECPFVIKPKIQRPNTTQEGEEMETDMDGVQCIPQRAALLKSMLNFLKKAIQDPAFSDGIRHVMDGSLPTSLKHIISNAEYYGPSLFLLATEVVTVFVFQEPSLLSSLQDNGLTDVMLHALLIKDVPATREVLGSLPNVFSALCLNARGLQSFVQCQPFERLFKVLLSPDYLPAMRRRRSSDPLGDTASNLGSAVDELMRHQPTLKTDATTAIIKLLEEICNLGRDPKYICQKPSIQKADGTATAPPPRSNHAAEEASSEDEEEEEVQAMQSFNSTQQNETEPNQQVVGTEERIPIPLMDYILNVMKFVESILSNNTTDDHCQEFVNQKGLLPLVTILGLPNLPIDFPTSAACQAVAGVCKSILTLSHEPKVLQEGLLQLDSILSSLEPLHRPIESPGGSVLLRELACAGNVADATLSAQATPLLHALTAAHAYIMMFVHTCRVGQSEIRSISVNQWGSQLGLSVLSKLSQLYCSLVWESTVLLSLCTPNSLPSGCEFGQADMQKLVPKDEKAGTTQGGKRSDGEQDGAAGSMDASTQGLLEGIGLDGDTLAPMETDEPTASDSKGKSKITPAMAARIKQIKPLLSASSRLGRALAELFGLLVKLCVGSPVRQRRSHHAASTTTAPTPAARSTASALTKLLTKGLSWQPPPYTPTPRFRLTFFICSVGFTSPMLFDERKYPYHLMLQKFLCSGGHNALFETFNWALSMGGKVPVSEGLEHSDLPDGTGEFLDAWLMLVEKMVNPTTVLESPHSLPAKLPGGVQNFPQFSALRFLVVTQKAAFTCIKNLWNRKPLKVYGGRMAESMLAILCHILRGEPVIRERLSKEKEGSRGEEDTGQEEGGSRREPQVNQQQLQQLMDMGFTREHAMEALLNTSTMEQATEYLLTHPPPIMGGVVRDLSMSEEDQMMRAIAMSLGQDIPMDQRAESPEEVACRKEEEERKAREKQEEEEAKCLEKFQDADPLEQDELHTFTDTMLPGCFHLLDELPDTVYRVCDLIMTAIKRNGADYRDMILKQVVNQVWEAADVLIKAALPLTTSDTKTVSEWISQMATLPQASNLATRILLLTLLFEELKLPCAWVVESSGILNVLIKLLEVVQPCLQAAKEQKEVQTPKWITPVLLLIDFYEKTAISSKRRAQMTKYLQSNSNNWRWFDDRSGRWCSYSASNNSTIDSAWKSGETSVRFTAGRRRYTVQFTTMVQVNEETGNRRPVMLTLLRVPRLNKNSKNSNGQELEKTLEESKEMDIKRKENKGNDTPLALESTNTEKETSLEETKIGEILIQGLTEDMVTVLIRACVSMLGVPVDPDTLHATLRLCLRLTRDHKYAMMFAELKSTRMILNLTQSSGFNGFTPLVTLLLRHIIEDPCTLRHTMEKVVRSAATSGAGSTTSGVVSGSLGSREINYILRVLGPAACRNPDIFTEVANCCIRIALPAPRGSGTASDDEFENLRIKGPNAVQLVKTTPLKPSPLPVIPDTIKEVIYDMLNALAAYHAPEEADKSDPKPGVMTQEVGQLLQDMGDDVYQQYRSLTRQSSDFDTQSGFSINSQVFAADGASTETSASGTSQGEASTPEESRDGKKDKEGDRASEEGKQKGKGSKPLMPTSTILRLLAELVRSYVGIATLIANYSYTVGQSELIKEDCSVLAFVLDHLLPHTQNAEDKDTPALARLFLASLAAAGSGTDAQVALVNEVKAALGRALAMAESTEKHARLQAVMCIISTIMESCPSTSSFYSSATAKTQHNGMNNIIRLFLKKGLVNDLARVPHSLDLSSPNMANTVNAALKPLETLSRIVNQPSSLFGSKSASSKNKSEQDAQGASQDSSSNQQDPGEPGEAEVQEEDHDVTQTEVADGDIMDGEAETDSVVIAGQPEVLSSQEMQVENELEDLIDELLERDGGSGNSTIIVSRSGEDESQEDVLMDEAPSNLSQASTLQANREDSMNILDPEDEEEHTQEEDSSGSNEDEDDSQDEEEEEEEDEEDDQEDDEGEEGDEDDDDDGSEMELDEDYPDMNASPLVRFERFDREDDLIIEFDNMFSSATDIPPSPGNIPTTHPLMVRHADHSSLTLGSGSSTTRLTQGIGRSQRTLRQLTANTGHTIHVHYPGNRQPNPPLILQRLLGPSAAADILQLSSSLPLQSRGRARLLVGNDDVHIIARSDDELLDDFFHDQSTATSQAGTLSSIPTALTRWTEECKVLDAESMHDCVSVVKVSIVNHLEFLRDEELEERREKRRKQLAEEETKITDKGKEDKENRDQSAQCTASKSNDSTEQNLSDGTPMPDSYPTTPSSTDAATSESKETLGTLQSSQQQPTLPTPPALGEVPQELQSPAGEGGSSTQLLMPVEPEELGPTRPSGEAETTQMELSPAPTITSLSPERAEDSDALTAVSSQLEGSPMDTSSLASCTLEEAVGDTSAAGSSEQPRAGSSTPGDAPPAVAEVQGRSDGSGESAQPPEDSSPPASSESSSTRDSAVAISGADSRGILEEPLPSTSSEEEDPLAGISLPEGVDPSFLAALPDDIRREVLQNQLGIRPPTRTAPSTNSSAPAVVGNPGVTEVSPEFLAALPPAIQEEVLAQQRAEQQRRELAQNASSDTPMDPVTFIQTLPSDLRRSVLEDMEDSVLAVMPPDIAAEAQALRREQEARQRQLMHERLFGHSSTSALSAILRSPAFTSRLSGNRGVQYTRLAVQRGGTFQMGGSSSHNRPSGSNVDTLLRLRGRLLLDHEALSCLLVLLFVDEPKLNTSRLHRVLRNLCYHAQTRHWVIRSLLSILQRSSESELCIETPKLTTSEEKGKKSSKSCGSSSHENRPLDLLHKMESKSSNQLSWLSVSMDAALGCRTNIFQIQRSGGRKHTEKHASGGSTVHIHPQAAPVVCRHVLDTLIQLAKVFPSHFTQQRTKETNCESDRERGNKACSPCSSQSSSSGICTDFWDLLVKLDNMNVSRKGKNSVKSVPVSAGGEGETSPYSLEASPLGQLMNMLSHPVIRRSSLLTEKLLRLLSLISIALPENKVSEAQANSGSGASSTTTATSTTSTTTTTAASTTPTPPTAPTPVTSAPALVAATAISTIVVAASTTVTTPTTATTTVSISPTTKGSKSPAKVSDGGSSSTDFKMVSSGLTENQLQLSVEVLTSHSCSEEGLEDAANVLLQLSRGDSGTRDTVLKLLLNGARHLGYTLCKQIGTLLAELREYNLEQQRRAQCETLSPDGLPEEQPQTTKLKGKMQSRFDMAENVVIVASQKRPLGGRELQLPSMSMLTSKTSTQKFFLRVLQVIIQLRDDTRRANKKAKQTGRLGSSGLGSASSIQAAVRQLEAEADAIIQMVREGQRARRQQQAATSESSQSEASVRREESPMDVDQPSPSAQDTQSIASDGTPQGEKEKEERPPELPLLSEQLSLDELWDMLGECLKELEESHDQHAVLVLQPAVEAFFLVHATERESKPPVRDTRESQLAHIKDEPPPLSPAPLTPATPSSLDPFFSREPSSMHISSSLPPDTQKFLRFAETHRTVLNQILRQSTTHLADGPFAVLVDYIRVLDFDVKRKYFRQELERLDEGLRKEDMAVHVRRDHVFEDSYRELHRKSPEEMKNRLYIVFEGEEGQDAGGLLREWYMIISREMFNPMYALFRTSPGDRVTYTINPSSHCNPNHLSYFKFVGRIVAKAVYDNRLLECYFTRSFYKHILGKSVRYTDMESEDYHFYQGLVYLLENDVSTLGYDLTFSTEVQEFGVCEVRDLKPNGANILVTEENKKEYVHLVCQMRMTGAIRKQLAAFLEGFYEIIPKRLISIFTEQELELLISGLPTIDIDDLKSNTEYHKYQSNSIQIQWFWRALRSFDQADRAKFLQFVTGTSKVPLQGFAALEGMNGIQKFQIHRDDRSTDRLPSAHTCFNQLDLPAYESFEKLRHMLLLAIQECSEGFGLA

Legend:
[1] = target: T1, FLAG-tagged HAPSTR2 (human); assay: affinity purification with mass spectrometry; FLAG co-IPs from empty vector, FLAG-HAPSTR1 or FLAG-HAPSTR2 293T cells; in-gel digestion, LC-MS/MS; two independent experiments
T1 sequence: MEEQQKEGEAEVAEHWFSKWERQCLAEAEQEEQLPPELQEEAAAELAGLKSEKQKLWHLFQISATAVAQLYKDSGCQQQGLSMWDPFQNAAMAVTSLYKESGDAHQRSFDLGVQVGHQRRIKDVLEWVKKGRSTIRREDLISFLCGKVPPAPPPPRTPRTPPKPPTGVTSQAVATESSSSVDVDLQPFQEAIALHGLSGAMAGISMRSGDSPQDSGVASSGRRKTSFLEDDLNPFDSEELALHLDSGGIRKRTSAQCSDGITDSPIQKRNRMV

[2] = target: T2, FLAG-HAPSTR1 (human) (UniProt Q14CZ0); assay: as above
T2 sequence: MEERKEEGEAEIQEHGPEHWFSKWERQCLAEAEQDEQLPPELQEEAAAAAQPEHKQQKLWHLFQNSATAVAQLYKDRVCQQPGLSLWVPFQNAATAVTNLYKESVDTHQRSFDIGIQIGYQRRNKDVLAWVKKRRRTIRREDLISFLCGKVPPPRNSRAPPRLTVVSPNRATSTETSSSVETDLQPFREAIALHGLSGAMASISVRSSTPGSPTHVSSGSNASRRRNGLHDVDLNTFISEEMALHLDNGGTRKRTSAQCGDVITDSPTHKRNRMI

Q: What does the source list for “HUWE1 (from UniProt Q7Z6Z7 1-4374) (enzyme)”?
A: binding [1]: binds; binding [2]: binds

No constants are given. Whether binding was seen depends on the method and setting. In cells and extracts the contact can be indirect. These calls come from enrichment with a bait or labelling near it, and not all partners need be listed. Where a sequence is shown, tags or fusion partners need not be part of it.
